For part of these data: No signal at the amounts used counts as a negative. For part of these data: The exact form of at least one protein or probe is not confirmed. For part of these data: Weaker means in comparison with the reference protein, sequence or condition of that experiment.
Columns and labels:
Test in all cases: EMSA
[1] = biological target: TOP2A (431-1193) (Homo sapiens) (UniProt P11388); conditions: 200 uM T60, shift abolished, dose dependent over 0-200 uM (Fig 4E); 20 mM HEPES-NaOH pH 7.4, 2 mM DTT, 3 mM MgCl2, 0.05% NP-40, protease inhibitors, 0.1 ug poly[dI:dC] in 20 ul, 30 min at 37 C; 4% native gel in 0.5x TBE; recombinant protein; residues 431-1193; label: IRDye700
[2] = biological target: TOP2A full-length (Homo sapiens) (UniProt P11388); conditions: 200 uM T60, shift interrupted; 20 mM HEPES-NaOH pH 7.4, 2 mM DTT, 3 mM MgCl2, 0.05% NP-40, protease inhibitors, 0.1 ug poly[dI:dC] in 20 ul, 30 min at 37 C; 4% native gel in 0.5x TBE; commercial protein; label: IRDye700
[3] = biological target: TOP2B full-length (Homo sapiens) (UniProt Q02880); conditions: 200 uM T60, shift interrupted; 20 mM HEPES-NaOH pH 7.4, 2 mM DTT, 3 mM MgCl2, 0.05% NP-40, protease inhibitors, 0.1 ug poly[dI:dC] in 20 ul, 30 min at 37 C; 4% native gel in 0.5x TBE; commercial protein; label: IRDye700

Amino acid sequences for entries named in this document (tags omitted). A change or cut given only in a name is not applied to a line headed by its entry. Residues count along the entry.
UniProt P11388, 431-1193: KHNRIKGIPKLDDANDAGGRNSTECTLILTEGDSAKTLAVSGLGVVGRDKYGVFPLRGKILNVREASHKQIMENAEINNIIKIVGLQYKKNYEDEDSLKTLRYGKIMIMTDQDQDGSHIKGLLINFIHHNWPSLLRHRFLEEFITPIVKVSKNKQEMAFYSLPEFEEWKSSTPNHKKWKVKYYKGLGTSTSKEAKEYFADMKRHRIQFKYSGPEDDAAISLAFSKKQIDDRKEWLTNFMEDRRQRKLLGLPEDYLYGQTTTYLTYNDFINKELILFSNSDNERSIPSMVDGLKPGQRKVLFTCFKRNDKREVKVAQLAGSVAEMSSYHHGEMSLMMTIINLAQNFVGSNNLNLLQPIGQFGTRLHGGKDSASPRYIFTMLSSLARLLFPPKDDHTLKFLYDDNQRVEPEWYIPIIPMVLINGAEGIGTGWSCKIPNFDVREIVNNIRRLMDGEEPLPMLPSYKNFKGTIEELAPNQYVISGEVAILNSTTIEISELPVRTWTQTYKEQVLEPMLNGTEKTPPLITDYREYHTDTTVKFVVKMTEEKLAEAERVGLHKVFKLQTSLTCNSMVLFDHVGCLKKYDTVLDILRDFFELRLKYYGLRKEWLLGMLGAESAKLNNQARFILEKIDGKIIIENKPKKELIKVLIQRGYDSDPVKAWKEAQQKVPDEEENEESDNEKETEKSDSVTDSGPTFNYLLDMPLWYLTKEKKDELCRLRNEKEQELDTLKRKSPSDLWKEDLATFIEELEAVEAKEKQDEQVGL
UniProt Q02880: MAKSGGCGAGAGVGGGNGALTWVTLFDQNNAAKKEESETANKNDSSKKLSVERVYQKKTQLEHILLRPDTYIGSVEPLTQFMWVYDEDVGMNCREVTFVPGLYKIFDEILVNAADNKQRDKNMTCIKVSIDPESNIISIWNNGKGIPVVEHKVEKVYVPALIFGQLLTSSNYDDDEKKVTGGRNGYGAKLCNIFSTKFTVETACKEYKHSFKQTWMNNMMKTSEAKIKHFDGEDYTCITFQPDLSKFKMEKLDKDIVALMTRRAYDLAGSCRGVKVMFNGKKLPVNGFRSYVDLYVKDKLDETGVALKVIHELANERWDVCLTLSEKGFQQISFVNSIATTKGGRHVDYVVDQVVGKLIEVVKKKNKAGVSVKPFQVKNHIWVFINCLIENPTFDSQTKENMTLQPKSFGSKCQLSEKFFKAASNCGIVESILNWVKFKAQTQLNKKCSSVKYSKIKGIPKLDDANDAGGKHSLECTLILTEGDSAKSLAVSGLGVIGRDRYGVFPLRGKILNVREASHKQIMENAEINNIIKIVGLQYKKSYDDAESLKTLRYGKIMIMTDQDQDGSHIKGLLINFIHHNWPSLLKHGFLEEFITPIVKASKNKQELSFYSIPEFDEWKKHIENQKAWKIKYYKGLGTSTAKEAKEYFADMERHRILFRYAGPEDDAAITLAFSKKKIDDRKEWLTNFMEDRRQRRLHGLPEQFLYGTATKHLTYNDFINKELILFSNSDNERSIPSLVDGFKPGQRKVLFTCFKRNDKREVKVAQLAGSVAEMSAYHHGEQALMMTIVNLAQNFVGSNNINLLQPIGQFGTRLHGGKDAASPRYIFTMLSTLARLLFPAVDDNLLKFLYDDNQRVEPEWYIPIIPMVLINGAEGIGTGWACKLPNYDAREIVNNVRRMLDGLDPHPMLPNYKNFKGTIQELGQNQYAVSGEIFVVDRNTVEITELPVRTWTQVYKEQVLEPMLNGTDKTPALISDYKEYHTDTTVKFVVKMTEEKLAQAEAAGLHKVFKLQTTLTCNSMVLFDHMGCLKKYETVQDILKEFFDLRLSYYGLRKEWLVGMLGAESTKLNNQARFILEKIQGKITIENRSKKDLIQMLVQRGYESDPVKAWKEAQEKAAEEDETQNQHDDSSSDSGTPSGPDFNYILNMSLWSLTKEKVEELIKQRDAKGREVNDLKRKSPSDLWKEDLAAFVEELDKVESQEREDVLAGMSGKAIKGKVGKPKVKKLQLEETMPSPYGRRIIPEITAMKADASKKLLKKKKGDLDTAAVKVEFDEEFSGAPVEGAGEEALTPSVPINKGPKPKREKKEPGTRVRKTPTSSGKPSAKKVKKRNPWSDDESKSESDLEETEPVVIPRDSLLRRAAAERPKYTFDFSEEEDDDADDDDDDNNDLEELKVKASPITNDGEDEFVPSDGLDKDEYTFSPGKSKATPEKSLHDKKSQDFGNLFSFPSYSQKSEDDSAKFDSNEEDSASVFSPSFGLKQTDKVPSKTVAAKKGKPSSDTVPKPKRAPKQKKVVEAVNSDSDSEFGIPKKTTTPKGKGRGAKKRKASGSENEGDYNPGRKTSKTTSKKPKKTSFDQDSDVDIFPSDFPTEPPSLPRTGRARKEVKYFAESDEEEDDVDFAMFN

## AGCCGAGCTGCAGCTCGGCT (double strand) [5ZRF]
[1]
  binding result: no binding
[2]
  binding result: binds more weakly
[3]
  binding result: binds more weakly
